These are yes or no findings as the source states them, for the method shown. In cells and extracts the contact can be indirect. Some results given as binding are weak or reduced against the parent protein; the word gives no strength.
Biological target: heat shock transcription factor 1 (HSF1) (human (endogenous in SH-SY5Y)) (UniProt Q00613)
Experiment: co-IP; endogenous HSF1 precipitated with anti-HSF1 antibody from whole-cell lysates of SH-SY5Y cells, three days after transfection of GFP-A53T alpha-syn or empty GFP vector alone or together with HA-Ub; immunoblot with anti-NEDD4; also with SIRT1 WT overexpression (interaction reduced, Fig. 5D)

Amino acid sequences for entries named in this document (tags omitted).
UniProt Q00613: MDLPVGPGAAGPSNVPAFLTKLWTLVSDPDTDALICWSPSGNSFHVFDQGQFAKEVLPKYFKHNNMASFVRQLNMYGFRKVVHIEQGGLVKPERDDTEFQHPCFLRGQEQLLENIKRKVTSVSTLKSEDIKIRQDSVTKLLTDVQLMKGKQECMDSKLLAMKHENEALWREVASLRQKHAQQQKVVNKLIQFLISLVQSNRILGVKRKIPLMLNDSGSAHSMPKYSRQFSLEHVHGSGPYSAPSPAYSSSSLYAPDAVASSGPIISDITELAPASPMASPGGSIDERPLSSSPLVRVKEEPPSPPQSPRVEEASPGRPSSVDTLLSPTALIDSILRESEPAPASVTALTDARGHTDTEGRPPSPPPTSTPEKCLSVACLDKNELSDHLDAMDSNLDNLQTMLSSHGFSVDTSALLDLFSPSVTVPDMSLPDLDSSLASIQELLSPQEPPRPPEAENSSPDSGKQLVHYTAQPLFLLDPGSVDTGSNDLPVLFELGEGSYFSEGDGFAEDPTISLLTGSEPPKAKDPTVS
UniProt P46934: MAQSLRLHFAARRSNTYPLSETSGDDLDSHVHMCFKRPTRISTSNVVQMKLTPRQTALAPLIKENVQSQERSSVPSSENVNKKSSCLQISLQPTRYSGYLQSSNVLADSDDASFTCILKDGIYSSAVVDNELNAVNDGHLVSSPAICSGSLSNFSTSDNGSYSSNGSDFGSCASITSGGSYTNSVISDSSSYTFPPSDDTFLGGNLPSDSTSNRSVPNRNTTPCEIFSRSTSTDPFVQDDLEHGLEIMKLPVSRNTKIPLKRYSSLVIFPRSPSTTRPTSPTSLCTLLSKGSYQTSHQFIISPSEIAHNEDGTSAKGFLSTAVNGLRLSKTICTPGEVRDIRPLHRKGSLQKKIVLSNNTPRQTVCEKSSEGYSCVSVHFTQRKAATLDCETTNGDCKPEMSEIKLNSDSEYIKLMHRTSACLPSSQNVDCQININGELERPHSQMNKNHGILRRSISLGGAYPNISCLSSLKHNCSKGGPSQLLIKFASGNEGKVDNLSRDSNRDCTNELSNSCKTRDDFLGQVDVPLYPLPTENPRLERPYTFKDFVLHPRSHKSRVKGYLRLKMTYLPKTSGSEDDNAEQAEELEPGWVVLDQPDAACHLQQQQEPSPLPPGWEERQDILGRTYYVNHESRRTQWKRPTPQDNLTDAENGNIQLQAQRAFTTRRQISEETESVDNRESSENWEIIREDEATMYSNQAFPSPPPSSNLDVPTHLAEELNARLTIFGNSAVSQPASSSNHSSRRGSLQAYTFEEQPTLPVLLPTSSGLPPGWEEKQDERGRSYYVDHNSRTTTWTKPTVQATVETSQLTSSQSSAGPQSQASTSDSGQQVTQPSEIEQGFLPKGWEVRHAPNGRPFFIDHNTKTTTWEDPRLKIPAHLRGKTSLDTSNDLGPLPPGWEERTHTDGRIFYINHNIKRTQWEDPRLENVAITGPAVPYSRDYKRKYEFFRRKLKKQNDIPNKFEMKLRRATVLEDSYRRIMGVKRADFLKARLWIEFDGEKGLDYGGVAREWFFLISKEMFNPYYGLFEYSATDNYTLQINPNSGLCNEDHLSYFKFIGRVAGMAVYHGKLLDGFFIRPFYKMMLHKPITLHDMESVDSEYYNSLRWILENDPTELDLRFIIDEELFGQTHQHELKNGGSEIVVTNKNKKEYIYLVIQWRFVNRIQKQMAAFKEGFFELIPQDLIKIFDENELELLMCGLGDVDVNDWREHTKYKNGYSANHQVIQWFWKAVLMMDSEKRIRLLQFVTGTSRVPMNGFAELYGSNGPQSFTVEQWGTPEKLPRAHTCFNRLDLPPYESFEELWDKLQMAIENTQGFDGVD

binding: binds
Substance: neural precursor cell expressed, developmentally down-regulated 4 (NEDD4) (from UniProt P46934 1-1319) (enzyme)
